PubChem BioAssay AID493246, Drosophila RNAi Screening Center | 2011
In all, the deposit lists about 21,000 reagents; this is a random part of those with a known target gene and a result. Of all reagents, 429 (2%) are marked active. 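Values are raw and not normalised between plates; calls rest on per-plate z-scores that were not deposited.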 A number with no mark means an inactive call. The numbers tell different reagents against one gene apart. Names joined by + are all predicted targets of the reagent. The record does not give: the amount of reagent, the time to read-out.

- Screen: 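Genes fly cells need to grow and stay alive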 (primary screen)
- Cells: Drosophila Kc and S2R+ cells
- Reagent: long dsRNA against Drosophila genes
- Measured: 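Cell number per well after knock-down, printed as raw plate values; calls were based on per-plate z-scores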
- Reading the numbers: Kc cell number and S2R+ cell number: higher = more cells remaining
- Rule for the call: 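Active when the per-plate z-score of cell number is 3 or more in the direction of fewer cells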

Depletion of Ccp84Aa gave: Kc cell number, rep 1 = 1.40e6; Kc cell number, rep 2 = 1.58e6; S2R+ cell number, rep 1 = 1.22e6; S2R+ cell number, rep 2 = 1.29e6. Knock-down of gw #1 gave: Kc cell number, rep 1 = 3.97e5 (active); S2R+ cell number, rep 1 = 4.59e5. Depletion of gw #2 resulted in: Kc cell number, rep 1 = 1.43e6 (active); Kc cell number, rep 2 = 1.37e6; S2R+ cell number, rep 1 = 5.88e5; S2R+ cell number, rep 2 = 6.73e5. For CG17683 the deposit lists Kc cell number, rep 1 = 1.48e6; Kc cell number, rep 2 = 1.44e6; S2R+ cell number, rep 1 = 1.03e6; S2R+ cell number, rep 2 = 1.13e6. CG14440 showed Kc cell number, rep 1 = 1.33e6; Kc cell number, rep 2 = 1.36e6; S2R+ cell number, rep 1 = 7.85e5; S2R+ cell number, rep 2 = 8.64e5. Against CG14411 the deposit lists Kc cell number, rep 1 = 1.51e6; Kc cell number, rep 2 = 1.49e6; S2R+ cell number, rep 1 = 1.18e6; S2R+ cell number, rep 2 = 1.22e6.

For CG14990, the entry reads Kc cell number, rep 1 = 1.51e6; Kc cell number, rep 2 = 1.36e6; S2R+ cell number, rep 1 = 1.01e6; S2R+ cell number, rep 2 = 1.17e6.

Ordered by “Kc cell number, rep 1” (lowest first): 3 of the entries above
gw #1: Kc cell number, rep 1 = 3.97e5 (active); S2R+ cell number, rep 1 = 4.59e5
gw #2: Kc cell number, rep 1 = 1.43e6 (active); Kc cell number, rep 2 = 1.37e6; S2R+ cell number, rep 1 = 5.88e5; S2R+ cell number, rep 2 = 6.73e5
CG17683: Kc cell number, rep 1 = 1.48e6; Kc cell number, rep 2 = 1.44e6; S2R+ cell number, rep 1 = 1.03e6; S2R+ cell number, rep 2 = 1.13e6

Further records:
Against Nepl7, the entry reads Kc cell number, rep 1 = 1.53e6; Kc cell number, rep 2 = 1.56e6; S2R+ cell number, rep 1 = 1.21e6; S2R+ cell number, rep 2 = 1.42e6. After knock-down of jhamt the results were Kc cell number, rep 1 = 1.65e6; Kc cell number, rep 2 = 1.59e6; S2R+ cell number, rep 1 = 1.28e6; S2R+ cell number, rep 2 = 1.49e6. After knock-down of CG34178 + CG34177, the record shows Kc cell number, rep 1 = 1.50e6; Kc cell number, rep 2 = 1.45e6; S2R+ cell number, rep 1 = 1.10e6; S2R+ cell number, rep 2 = 1.27e6. CG17470 scored Kc cell number, rep 1 = 1.22e6; Kc cell number, rep 2 = 1.46e6; S2R+ cell number, rep 1 = 1.10e6; S2R+ cell number, rep 2 = 1.14e6. After knock-down of tobi, the record shows Kc cell number, rep 1 = 1.80e6; Kc cell number, rep 2 = 1.87e6; S2R+ cell number, rep 1 = 1.06e6; S2R+ cell number, rep 2 = 1.08e6. Against Nmdar1 #1, the values are Kc cell number, rep 1 = 1.38e6; Kc cell number, rep 2 = 1.53e6; S2R+ cell number, rep 1 = 1.09e6; S2R+ cell number, rep 2 = 1.22e6.

Silencing of Nmdar1 #2 gave: Kc cell number, rep 1 = 1.45e6; Kc cell number, rep 2 = 1.57e6; S2R+ cell number, rep 1 = 1.29e6; S2R+ cell number, rep 2 = 1.39e6. Depletion of ttk #1 gave: Kc cell number, rep 1 = 1.23e6; Kc cell number, rep 2 = 1.55e6; S2R+ cell number, rep 1 = 1.10e6; S2R+ cell number, rep 2 = 1.13e6. Depletion of ttk #2 resulted in: Kc cell number, rep 1 = 1.34e6; Kc cell number, rep 2 = 1.37e6; S2R+ cell number, rep 1 = 1.04e6; S2R+ cell number, rep 2 = 1.13e6. CG33333 scored Kc cell number, rep 1 = 1.43e6; Kc cell number, rep 2 = 1.39e6; S2R+ cell number, rep 1 = 1.00e6; S2R+ cell number, rep 2 = 1.09e6. For CG3081, the values are Kc cell number, rep 1 = 1.62e6; Kc cell number, rep 2 = 1.47e6; S2R+ cell number, rep 1 = 1.08e6; S2R+ cell number, rep 2 = 1.19e6. With knock-down of RpL40 the results were Kc cell number, rep 1 = 1.02e6 (active); Kc cell number, rep 2 = 1.06e6; S2R+ cell number, rep 1 = 7.18e5; S2R+ cell number, rep 2 = 8.42e5.

For CG8478, the entry reads Kc cell number, rep 1 = 1.59e6; Kc cell number, rep 2 = 1.75e6; S2R+ cell number, rep 1 = 1.26e6; S2R+ cell number, rep 2 = 1.39e6. Knock-down of aspr #1 resulted in: Kc cell number, rep 1 = 1.50e6; Kc cell number, rep 2 = 1.50e6; S2R+ cell number, rep 1 = 1.05e6; S2R+ cell number, rep 2 = 1.15e6. aspr #2 scored Kc cell number, rep 1 = 1.51e6; Kc cell number, rep 2 = 1.48e6; S2R+ cell number, rep 1 = 1.06e6; S2R+ cell number, rep 2 = 1.15e6.
